# Test results published in the supplement of paper PMC6411743.
# ± gives the standard deviation of the averaged measurements. The list shows a part of the results, in another mix than the full data.
# Tests used:
# Test in all cases: NP40-soluble protein abundance relative to vehicle (solubility fold change) (ratio); higher = more soluble protein in presence of AMP-PNP
# [1] = target: T1, E5RIS3 and related entries (UniProt Q8TCF1)
# T1 sequence (whole entry): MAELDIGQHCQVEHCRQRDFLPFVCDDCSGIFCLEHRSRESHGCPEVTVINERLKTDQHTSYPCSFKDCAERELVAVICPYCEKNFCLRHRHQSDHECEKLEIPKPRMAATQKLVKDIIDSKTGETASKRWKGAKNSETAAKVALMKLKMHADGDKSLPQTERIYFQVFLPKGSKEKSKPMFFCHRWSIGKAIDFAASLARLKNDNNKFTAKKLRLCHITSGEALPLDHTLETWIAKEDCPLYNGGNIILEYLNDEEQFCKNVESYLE
# Outline: (§1)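 Jurkat crude lysate prepared with a Dounce homogeniser was treated at eight concentrations spanning 0.1 to 10 mM, 10 min at room temperature then 3 min at 37 °C. Solubilisation with 0.8% NP40 and benzonase and ultracentrifugation preceded TMT labelling of the supernatant for LC-MS/MS. Fold change against the detergent-processed vehicle was determined per replicate from vsn-normalised intensities, across three independent experiments.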
# [2] = target: T2, E7EMK3 and related entries (UniProt Q14254)
# T2 sequence (whole entry): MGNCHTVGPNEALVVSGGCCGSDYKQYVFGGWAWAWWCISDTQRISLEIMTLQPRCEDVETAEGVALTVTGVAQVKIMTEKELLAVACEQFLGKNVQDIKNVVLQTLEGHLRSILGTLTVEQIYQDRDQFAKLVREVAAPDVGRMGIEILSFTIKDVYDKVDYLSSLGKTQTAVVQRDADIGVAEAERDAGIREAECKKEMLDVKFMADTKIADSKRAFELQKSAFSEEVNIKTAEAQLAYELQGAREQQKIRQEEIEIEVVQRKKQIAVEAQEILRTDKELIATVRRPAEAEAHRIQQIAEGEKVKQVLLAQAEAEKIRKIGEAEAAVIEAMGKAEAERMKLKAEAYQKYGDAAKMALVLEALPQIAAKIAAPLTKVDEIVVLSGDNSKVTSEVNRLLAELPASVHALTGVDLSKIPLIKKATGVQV
# Outline: as §1
# [3] = target: T3, E7EQU1 and related entries (UniProt O15347)
# T3 sequence (whole entry): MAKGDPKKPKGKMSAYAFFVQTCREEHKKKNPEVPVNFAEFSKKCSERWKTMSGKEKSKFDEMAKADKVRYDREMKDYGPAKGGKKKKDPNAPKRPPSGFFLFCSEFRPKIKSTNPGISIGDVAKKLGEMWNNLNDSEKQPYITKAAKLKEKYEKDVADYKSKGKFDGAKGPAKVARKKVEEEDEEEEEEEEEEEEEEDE
# Outline: as §1
# [4] = target: T4, E7EUY3 and related entries (UniProt P05166)
# T4 sequence (whole entry): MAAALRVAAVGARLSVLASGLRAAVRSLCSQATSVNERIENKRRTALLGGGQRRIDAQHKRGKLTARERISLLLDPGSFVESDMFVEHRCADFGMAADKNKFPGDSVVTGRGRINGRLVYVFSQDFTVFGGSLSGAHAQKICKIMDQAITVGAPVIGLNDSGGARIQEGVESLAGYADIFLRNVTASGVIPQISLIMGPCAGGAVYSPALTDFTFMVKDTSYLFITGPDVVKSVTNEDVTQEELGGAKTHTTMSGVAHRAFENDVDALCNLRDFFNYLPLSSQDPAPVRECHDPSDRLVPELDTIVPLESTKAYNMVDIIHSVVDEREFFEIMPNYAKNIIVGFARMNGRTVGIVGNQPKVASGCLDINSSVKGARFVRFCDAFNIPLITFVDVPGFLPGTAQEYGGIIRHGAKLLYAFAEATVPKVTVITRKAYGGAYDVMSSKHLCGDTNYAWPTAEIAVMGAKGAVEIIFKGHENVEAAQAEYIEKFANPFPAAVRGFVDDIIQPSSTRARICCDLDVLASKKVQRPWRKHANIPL
# Outline: as §1
# [5] = target: T5, E9PCW1 and related entries (UniProt O95249)
# T5 sequence (whole entry): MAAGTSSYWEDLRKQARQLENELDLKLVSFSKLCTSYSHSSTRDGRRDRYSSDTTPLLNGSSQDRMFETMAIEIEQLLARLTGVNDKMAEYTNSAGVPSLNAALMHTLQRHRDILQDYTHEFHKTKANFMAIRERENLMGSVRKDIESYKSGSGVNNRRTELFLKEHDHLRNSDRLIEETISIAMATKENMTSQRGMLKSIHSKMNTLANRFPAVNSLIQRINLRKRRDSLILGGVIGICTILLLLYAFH
# Outline: as §1
# [6] = target: T6, E9PH99 and related entries (UniProt Q9Y4E5)
# T6 sequence (whole entry): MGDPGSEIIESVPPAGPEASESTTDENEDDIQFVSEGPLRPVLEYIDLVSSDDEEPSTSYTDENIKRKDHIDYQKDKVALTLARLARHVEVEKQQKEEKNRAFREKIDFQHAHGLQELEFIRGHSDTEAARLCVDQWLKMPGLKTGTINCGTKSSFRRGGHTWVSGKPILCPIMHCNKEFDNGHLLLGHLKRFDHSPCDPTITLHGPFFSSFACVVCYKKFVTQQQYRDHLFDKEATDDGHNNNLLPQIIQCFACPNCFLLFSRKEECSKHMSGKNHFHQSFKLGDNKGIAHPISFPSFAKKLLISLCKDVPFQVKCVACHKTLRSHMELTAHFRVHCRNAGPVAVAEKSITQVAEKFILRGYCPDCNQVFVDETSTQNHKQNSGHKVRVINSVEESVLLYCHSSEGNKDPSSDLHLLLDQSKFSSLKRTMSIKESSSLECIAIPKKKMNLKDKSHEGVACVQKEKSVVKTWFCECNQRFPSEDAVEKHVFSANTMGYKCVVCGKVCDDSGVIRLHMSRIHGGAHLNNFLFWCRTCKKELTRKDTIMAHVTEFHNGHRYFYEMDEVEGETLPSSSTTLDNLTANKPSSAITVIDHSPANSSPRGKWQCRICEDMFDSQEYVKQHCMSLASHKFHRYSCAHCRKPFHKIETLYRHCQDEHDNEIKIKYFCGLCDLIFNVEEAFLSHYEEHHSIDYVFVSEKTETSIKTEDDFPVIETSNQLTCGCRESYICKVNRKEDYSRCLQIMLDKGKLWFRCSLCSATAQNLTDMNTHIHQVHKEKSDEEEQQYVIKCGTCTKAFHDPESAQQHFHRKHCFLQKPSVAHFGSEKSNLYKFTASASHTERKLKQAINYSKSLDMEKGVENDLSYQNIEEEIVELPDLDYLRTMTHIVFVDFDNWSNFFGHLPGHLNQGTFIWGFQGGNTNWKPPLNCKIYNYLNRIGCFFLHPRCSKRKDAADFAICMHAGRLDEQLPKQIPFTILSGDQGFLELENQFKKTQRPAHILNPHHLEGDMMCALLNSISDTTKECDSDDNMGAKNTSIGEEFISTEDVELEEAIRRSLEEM
# Outline: as §1
# [7] = target: T7, E9PIV2 and related entries (UniProt P24001)
# T7 sequence (whole entry): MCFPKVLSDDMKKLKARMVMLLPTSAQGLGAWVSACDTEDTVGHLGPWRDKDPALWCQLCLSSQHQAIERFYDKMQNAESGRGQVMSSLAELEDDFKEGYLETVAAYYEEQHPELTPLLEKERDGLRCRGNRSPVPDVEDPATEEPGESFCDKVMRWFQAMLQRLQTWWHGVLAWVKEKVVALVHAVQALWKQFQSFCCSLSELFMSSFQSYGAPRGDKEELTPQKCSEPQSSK
# Outline: as §1
structure (smiles),measurement,setting,value
Nc1ncnc2c1ncn2[C@@H]1O[C@H](COP(=O)(O)OP(=O)(O)NP(=O)(O)O)[C@@H](O)[C@H]1O [adenylyl imidodiphosphate],NP40-soluble protein abundance,[1]; concentration: 1mM,1 ± 0.044
same,NP40-soluble protein abundance,[1]; concentration: 2mM,1.03 ± 0.048
same,NP40-soluble protein abundance,[1]; concentration: 4mM,0.995 ± 0.041
same,NP40-soluble protein abundance,[1]; concentration: 6mM,0.996 ± 0.017
same,NP40-soluble protein abundance,[1]; concentration: 8mM,0.967 ± 0.031
same,NP40-soluble protein abundance,[1]; concentration: 10mM,0.995 ± 0.049
same,NP40-soluble protein abundance,[2]; concentration: 1mM,1.02 ± 0.12
same,NP40-soluble protein abundance,[2]; concentration: 2mM,0.981 ± 0.09
same,NP40-soluble protein abundance,[2]; concentration: 4mM,0.985 ± 0.12
same,NP40-soluble protein abundance,[2]; concentration: 6mM,0.98 ± 0.14
same,NP40-soluble protein abundance,[2]; concentration: 8mM,0.953 ± 0.1
same,NP40-soluble protein abundance,[2]; concentration: 10mM,0.956 ± 0.11
same,NP40-soluble protein abundance,[3]; concentration: 1mM,1.06 ± 0.11
same,NP40-soluble protein abundance,[3]; concentration: 2mM,1.15 ± 0.06
same,NP40-soluble protein abundance,[3]; concentration: 4mM,1.01 ± 0.085
same,NP40-soluble protein abundance,[3]; concentration: 6mM,1.08 ± 0.065
same,NP40-soluble protein abundance,[3]; concentration: 8mM,1.08 ± 0.048
same,NP40-soluble protein abundance,[3]; concentration: 10mM,1.1 ± 0.09
same,NP40-soluble protein abundance,[4]; concentration: 1mM,0.966 ± 0.022
same,NP40-soluble protein abundance,[4]; concentration: 2mM,0.982 ± 0.048
same,NP40-soluble protein abundance,[4]; concentration: 4mM,0.966 ± 0.032
same,NP40-soluble protein abundance,[4]; concentration: 6mM,0.946 ± 0.041
same,NP40-soluble protein abundance,[4]; concentration: 8mM,0.936 ± 0.051
same,NP40-soluble protein abundance,[4]; concentration: 10mM,0.949 ± 0.059
same,NP40-soluble protein abundance,[5]; concentration: 1mM,0.991 ± 0.024
same,NP40-soluble protein abundance,[5]; concentration: 2mM,1.01 ± 0.034
same,NP40-soluble protein abundance,[5]; concentration: 4mM,0.975 ± 0.014
same,NP40-soluble protein abundance,[5]; concentration: 6mM,0.987 ± 0.015
same,NP40-soluble protein abundance,[5]; concentration: 8mM,0.98 ± 0.023
same,NP40-soluble protein abundance,[5]; concentration: 10mM,0.971 ± 0.031
same,NP40-soluble protein abundance,[6]; concentration: 1mM,1.06 ± 0.013
same,NP40-soluble protein abundance,[6]; concentration: 2mM,1.03 ± 0.025
same,NP40-soluble protein abundance,[6]; concentration: 4mM,1.04 ± 0.029
same,NP40-soluble protein abundance,[6]; concentration: 6mM,1.01 ± 0.026
same,NP40-soluble protein abundance,[6]; concentration: 8mM,1.03 ± 0.017
same,NP40-soluble protein abundance,[6]; concentration: 10mM,1.01 ± 0.014
same,NP40-soluble protein abundance,[7]; concentration: 1mM,0.987 ± 0.015
same,NP40-soluble protein abundance,[7]; concentration: 2mM,1.01 ± 0.034
same,NP40-soluble protein abundance,[7]; concentration: 4mM,0.964 ± 0.01

# Pulled one by one from the entries so far (2):
structure (smiles),measurement,setting,value
Nc1ncnc2c1ncn2[C@@H]1O[C@H](COP(=O)(O)OP(=O)(O)NP(=O)(O)O)[C@@H](O)[C@H]1O [adenylyl imidodiphosphate],NP40-soluble protein abundance,[7]; concentration: 4mM,0.964 ± 0.01
same,NP40-soluble protein abundance,[1]; concentration: 4mM,0.995 ± 0.041
